Among the data in publication PMC13577001, “Crystal structures of the μ2 subunit of clathrin-adaptor protein 2 in complex with peptides derived from human papillomavirus 16 E7” (The Journal of Microbiology, 2025) are binding values, retold here.

Amino acid sequences for entries named in this document (tags omitted). A change or cut given only in a name is not applied to a line headed by its entry. Residues count along the entry.
UniProt P84092, residues 158-435: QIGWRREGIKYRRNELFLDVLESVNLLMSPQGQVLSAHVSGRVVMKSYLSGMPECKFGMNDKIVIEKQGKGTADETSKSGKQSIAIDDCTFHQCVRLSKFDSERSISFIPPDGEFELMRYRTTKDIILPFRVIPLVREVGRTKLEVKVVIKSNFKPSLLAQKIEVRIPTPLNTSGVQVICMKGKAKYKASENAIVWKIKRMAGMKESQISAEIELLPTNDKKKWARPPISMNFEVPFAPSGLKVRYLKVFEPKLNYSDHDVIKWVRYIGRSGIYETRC
UniProt P06788: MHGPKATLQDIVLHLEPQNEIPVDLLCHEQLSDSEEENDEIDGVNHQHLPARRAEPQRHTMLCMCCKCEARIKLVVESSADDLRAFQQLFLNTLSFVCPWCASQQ

This test addresses μ2 subunit of clathrin-adaptor protein 2 (AP2-μ2), residues 158–435, wild type (rat) (UniProt P84092). Nature of the test: ITC; peptide titrated into recombinant AP2-μ2; 50 mM Tris-HCl (pH 7.5), 500 mM NaCl, 3 mM β-mercaptoethanol; in Fig. 2 peptide 0.2 mM into 10 μM AP2-μ2; both purified. For orientation: Isothermal titration calorimetry measures the heat released or taken up as one component is titrated into another.

Results are given in words; binding and its absence hold for the method and conditions named.

Regarding “HPV18 E7(25–42) 18-mer peptide (from UniProt P06788 25-42)”, the binding result was “no binding”.
